One molecule from patent publication US9376466B2, “Peptide inhibitors of caspase 2 activation” (The Trustees of Columbia University in the city of New York, priority 2011, dated 2016) can be followed below.

Results are given in words; binding and its absence hold for the method and conditions named. In cells and extracts the contact can be indirect. Some entries that bind do so weakly or less than the wild type.

Assay [1] addresses RAIDD (RIP-associated ICH-1/CED-3-homologous protein with a death domain) (rat). The assay can be described thus: co-immunoprecipitation of endogenous RAIDD, Western blot for Caspase 2 (legend of FIG. 13). Background: In western blotting, separated proteins are transferred to a membrane and probed.
The target is the same in assay [2]. Description: co-immunoprecipitation of endogenous RAIDD (anti-CRADD beads) from primary rat hippocampal neuron lysates, Western blot for Caspase 2.

B1: Caspase 2 (enzyme, rat, UniProt P55215 2-452, looked up)
chain: AASSGRSQSSLHRKGLMAADRRSRILAVCGMHPDHQETLKKNRVVLAKQLLLSELLEHLLEKDIITLEMRELIQAKGGSFSQNVELLNLLPKRGPQAFDAFCEALRETRQGHLEDLLLTTLSDIQHILPPLSCDYDSSLPFSVCESCPPHKQSRLSTDTMEHSLDNGDGPPCLQVKPCTPEFYQAHYQLAYRLQSQPRGLALVMSNVHFTGEKDLEFRSGGDVDHTTLVTLFKLLGYNVHVLYDQTAQEMQEKLQNFAQLPAHRVTDSCIVALLSHGVEGGIYGVDGKLLQLQEVFRLFDNANCPSLQNKPKMFFIQACRGDETDRGVDQQDGKNHAQSPGCEESDAGKEELMKMRLPTRSDMICGYACLKGNAAMRNTKRGSWYIEALTQVFSERACDMHVADMLVKVNALIKEREGYAPGTEFHRCKEMSEYCSTLCQQLYLFPGYPPT
Consider B1, for which the binding entry in assay [1] and in assay [2] was “binds” each time.
